The target of one experiment is T1, SNAP-TRAK2 (UniProt O60296).
T1 sequence (chain, JF646-SNAP ligand on the SNAP tag): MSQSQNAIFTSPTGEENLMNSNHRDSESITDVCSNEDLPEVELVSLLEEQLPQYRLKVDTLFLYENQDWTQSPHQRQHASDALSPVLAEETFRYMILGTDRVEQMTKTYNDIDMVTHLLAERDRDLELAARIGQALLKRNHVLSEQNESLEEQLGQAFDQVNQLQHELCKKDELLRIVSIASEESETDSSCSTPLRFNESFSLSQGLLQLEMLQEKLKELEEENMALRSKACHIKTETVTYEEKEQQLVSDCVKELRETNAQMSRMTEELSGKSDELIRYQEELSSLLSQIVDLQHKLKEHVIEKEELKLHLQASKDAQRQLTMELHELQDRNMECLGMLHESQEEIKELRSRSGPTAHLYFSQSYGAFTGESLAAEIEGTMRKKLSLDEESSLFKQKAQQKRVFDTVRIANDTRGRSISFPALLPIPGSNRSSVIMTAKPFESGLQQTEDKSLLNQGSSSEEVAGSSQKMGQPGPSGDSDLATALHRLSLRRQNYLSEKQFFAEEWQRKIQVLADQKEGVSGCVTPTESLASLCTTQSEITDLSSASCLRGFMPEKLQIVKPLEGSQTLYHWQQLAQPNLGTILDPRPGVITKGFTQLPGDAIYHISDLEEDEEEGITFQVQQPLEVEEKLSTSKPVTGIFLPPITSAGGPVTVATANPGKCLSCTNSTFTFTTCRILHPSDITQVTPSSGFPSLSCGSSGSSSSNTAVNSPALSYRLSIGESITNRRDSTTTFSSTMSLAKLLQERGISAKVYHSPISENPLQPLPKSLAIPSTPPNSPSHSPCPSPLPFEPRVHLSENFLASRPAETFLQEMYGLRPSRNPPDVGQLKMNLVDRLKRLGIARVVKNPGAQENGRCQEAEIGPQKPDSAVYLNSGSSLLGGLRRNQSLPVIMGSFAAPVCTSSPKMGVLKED
Description: single-molecule co-migration (three-color TIRF microscopy); lysate of HeLa cells stably expressing DHC-GFP and transfected with SNAP-TRAK2 (JF646), Myc-KIF5C-Halo (TMR) and HA-LIS1, on unlabeled microtubules.

Amino acid sequences for entries named in this document (tags omitted).
UniProt P28738: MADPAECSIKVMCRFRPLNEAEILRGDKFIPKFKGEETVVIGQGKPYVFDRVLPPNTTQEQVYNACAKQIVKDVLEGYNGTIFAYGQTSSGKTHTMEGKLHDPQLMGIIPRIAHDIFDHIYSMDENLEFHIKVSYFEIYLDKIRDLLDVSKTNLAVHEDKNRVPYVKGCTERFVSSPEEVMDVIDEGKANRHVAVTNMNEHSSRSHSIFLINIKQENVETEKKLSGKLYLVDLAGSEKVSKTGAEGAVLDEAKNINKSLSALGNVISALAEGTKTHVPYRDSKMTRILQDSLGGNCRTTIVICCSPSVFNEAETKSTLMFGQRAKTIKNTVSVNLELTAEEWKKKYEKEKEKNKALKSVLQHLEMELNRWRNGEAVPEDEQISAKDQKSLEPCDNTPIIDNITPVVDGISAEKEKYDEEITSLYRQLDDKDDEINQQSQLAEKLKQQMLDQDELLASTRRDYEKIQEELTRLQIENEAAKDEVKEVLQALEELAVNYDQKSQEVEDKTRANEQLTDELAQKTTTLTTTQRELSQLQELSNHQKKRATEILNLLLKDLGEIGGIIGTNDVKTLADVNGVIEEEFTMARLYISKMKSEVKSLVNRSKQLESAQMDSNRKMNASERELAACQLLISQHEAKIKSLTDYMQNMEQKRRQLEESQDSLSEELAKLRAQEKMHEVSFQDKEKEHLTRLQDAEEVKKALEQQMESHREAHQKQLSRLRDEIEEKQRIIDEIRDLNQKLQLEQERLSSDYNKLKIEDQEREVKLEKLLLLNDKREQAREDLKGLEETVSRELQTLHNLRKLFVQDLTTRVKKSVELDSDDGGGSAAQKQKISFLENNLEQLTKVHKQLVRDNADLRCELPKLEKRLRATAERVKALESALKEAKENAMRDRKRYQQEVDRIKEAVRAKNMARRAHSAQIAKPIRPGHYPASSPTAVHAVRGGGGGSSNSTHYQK
UniProt Q61768: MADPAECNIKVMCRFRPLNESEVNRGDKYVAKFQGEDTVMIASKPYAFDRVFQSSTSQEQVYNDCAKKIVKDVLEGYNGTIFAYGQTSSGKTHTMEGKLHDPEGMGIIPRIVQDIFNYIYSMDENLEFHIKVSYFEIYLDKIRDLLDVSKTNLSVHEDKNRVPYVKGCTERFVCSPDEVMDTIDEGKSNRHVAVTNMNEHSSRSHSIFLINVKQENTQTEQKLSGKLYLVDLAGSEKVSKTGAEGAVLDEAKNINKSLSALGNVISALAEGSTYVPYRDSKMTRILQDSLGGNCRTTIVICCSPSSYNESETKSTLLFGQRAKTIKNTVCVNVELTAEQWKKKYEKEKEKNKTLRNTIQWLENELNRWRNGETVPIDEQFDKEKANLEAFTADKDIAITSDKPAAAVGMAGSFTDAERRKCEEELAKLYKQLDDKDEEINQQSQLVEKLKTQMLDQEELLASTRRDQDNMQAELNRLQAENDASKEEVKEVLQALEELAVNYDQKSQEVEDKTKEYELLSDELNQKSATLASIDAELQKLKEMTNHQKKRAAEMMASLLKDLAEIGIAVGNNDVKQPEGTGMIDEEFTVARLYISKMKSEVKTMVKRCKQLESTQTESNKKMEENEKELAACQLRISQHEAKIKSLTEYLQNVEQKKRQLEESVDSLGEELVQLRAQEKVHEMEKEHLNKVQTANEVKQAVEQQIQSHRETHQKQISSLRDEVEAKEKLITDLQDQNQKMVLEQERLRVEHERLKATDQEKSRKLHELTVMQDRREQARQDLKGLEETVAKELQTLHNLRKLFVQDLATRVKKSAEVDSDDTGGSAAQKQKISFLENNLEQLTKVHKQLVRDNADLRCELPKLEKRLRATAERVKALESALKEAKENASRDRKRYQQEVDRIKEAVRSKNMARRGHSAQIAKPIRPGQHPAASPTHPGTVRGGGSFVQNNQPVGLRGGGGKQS
UniProt Q9JHU4: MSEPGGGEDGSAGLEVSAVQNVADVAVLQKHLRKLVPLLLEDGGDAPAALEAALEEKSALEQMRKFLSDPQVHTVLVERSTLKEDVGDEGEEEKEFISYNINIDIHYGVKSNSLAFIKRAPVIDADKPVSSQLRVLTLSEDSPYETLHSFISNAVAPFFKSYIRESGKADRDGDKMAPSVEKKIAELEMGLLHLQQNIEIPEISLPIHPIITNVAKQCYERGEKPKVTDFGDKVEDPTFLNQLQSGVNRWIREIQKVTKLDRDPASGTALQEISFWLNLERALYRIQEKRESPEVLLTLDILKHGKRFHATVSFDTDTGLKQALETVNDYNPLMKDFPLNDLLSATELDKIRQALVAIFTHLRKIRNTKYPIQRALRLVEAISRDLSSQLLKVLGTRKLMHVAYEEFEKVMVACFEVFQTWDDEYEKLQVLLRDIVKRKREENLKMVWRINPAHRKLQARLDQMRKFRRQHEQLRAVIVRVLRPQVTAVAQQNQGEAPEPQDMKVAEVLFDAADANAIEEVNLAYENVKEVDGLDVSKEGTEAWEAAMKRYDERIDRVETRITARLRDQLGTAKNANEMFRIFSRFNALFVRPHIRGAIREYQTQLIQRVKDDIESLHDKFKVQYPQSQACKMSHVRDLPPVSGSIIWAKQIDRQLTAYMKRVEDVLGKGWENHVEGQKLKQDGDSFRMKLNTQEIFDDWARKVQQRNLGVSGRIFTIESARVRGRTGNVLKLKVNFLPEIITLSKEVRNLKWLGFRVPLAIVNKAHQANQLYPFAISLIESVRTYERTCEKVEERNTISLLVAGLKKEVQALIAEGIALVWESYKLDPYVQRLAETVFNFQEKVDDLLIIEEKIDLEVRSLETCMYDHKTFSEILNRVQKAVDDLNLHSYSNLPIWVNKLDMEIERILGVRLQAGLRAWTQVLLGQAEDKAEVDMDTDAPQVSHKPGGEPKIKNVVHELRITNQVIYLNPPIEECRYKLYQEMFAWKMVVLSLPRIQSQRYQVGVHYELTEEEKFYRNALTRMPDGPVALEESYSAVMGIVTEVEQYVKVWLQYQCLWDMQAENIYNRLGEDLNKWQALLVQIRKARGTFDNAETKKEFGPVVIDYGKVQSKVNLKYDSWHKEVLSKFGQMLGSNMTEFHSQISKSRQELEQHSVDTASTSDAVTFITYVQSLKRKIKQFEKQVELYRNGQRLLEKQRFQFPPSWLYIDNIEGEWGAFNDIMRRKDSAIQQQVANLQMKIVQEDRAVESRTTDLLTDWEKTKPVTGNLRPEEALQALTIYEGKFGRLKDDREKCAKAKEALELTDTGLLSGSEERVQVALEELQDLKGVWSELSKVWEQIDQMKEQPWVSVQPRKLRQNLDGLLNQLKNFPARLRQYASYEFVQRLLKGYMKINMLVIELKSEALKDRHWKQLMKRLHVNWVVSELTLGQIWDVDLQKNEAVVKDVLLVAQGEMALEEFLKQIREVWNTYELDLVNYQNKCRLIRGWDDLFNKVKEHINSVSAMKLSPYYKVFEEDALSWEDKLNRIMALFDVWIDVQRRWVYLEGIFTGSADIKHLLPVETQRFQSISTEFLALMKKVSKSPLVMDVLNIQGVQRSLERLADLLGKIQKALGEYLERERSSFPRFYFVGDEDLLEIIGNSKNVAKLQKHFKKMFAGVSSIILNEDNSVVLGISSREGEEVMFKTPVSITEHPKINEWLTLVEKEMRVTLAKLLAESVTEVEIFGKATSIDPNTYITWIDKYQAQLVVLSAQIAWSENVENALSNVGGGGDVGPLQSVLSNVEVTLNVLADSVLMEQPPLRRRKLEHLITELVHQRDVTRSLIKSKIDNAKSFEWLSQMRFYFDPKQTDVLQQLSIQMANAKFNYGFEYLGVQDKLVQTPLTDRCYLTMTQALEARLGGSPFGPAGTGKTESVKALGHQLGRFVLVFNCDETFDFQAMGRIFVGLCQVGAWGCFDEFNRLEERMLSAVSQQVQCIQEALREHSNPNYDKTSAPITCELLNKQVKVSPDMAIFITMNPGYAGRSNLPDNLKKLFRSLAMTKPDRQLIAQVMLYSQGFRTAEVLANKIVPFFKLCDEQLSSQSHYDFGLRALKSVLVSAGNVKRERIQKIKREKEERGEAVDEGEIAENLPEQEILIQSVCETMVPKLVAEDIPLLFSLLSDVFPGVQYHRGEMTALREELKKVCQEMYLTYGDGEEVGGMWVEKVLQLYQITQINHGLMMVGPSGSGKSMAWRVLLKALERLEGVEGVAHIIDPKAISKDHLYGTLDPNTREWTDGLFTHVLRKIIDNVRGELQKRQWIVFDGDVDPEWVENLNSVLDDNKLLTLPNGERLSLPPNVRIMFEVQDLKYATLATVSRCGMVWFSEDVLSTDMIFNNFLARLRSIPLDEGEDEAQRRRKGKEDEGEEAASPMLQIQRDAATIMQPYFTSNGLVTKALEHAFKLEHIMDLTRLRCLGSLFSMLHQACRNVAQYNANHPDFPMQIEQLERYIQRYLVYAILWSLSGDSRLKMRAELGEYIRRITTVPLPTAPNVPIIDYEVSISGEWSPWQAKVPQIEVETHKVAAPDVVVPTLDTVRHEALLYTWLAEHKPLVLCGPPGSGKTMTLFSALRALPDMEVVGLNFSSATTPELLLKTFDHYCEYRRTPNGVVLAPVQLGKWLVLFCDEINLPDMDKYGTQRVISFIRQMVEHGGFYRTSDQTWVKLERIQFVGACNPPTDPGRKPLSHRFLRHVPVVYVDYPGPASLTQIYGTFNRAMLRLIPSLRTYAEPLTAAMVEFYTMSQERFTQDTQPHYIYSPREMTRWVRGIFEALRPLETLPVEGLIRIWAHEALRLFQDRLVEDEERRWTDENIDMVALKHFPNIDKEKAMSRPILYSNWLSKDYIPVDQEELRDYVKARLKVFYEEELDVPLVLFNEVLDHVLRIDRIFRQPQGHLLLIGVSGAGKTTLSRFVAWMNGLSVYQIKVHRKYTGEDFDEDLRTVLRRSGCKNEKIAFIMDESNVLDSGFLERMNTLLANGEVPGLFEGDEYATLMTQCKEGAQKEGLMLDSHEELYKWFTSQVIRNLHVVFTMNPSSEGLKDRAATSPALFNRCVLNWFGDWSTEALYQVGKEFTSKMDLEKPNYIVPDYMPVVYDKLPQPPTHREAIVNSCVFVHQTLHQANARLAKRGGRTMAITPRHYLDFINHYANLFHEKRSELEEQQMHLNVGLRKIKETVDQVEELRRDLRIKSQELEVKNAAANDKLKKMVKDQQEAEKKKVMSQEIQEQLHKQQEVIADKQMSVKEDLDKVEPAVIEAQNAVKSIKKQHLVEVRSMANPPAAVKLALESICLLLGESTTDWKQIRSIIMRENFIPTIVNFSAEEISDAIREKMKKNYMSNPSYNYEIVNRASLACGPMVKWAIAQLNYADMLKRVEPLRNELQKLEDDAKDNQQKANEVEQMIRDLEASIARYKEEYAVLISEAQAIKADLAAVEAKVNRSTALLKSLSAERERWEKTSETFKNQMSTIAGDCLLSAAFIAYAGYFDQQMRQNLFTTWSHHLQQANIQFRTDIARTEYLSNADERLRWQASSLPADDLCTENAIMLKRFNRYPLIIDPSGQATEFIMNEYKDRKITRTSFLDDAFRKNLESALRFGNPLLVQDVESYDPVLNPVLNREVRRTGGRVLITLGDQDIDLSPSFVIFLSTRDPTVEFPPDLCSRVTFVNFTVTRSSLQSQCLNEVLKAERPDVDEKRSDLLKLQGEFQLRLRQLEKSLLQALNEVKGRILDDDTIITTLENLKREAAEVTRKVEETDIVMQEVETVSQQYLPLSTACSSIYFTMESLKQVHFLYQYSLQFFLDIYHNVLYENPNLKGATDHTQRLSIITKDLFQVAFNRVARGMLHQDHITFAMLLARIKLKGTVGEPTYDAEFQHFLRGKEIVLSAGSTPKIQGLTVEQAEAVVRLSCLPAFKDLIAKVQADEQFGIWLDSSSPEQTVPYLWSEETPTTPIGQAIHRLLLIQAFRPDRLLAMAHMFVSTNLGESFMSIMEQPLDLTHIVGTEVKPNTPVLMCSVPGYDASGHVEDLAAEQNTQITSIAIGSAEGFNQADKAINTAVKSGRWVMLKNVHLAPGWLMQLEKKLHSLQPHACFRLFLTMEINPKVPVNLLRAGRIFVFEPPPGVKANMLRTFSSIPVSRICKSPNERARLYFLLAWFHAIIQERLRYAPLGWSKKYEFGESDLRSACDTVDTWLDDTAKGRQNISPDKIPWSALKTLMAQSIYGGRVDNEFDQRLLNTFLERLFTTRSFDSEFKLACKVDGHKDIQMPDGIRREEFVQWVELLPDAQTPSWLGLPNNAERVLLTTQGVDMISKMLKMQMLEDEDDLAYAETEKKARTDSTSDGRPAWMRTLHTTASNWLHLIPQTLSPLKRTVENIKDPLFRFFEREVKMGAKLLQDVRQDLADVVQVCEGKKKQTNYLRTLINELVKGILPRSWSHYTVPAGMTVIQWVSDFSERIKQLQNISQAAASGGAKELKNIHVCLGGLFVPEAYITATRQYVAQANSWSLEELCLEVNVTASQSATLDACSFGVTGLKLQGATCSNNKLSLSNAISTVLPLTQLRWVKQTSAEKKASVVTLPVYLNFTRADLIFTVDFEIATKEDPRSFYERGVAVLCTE

Experiment [1] addresses T2, Halo-TRAK2 (UniProt O60296).
T2 sequence: T1 sequence (chain, JF646-SNAP ligand on the SNAP tag)
Put plainly: single-molecule co-migration (dual-color TIRF microscopy); lysate of COS-7 cells expressing TMR-labeled Halo-TRAK2 and GFP-p25, on dynamic microtubules at 37 C.

For a further experiment, the target named is FLAG-p150^Glued (UniProt Q14203). Description: co-IP; COS-7 cells expressing FLAG-p150^Glued and Myc-KIF5B with or without HA-TRAK2; anti-FLAG antibody (negative control GFP antibody) on Protein G Dynabeads, 30 min at room temperature; Western blot. In general terms: In western blotting, separated proteins are transferred to a membrane and probed.
The next experiment concerns the target T3, Halo-TRAK2 I132D (UniProt O60296).
T3 sequence: T1 sequence (chain, JF646-SNAP ligand on the SNAP tag) with I132D
Description: co-IP; COS-7 cells expressing Myc-KIF5B and Halo-tagged TRAK2, TRAK2 A/V, TRAK2 I/D or negative control Optineurin; anti-HaloTag antibody on Protein G Dynabeads, 30 min at room temperature; blots for endogenous DHC and Myc-KIF5B.

Experiment [2] has as its target T2, Halo-TRAK2. Described as above.
The target in a further experiment is T4, Halo-TRAK2 AA129-130VV (UniProt O60296).
T4 sequence: T1 sequence (chain, JF646-SNAP ligand on the SNAP tag) with A129V, A130V
Described as above.

In experiment [3] the target is Myc-KIF5C-Halo (in HeLa) (mouse) (UniProt P28738). Description: single-molecule co-migration (three-color TIRF microscopy); lysate of HeLa cells stably expressing DHC-GFP and transfected with SNAP-TRAK2 (JF646), Myc-KIF5C-Halo (TMR) and HA-LIS1, on unlabeled microtubules.

Positions count from the first letter of the chain named. These are yes or no findings as the source states them, for the method shown. For some assays here: In cells and extracts the contact can be indirect. Some entries that bind do so weakly or less than the wild type.

On to “Myc-KIF5C-Halo (in HeLa) (from UniProt P28738 1-956)”, for which the binding entry with SNAP-TRAK2 was “binds”.

Consider eGFP-P25 (from UniProt Q9BTE1 1-182), for which the binding entry with Halo-TRAK2 [1] was “binds”.

Turning to Myc-KIF5B (from UniProt Q61768 1-963), the binding entry with FLAG-p150^Glued, in the experiment with Halo-TRAK2 I132D, with Halo-TRAK2 [2] and with Halo-TRAK2 AA129-130VV was “binds” in each case.

As for “GFP-tagged dynein heavy chain (DHC-GFP) (from UniProt Q9JHU4 1-4644)”, the binding result (in experiment [3]; with SNAP-TRAK2) was “binds” in each case.

Values taken from paper PMC8319186, “Mitochondrial adaptor TRAK2 activates and functionally links opposing kinesin and dynein motors” (Nature Communications, 2021).
